{
  "source": "PubChem BioAssay AID504582",
  "about": "(Broad Institute, 2011)",
  "note": "The whole screen tested about 340,000 compounds, of which about 2,300 (0.68%) were called active. The shares of active, inactive and inconclusive entries below differ from those in the screen. No stated cut-off is given here; in the data, active means growth rescue above about 28% (passing the limit was not always enough); inconclusive means no clear call, values can overlap the other calls.",
  "data": [
    {"experiment": "rescue of yeast from PfHsp40 toxicity, primary screen, S. cerevisiae, ATP luminescence (AID 504582);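 further: yeast W303a lacking pdr1 and pdr3 grown in galactose medium; growth measured after three days at 30 °C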", "details": "S. cerevisiae expressing PfHsp40, growth rescue, at 12.5 µM, stronger effect = higher value", "values": [
      {"smiles": "CC(C)Sc1ncc(S(=O)(=O)c2ccccc2)c(=O)[nH]1", "growth rescue": "inconclusive: 27.8%"},
      {"smiles": "Cn1c(=O)c(C(=O)NNC(=O)c2ccc(Br)cc2)c(O)c2ccccc21", "growth rescue": "inconclusive: 27.1%"},
      {"smiles": "Cc1ccc(OCc2nnc(-c3ccc(Cl)cc3)o2)cc1", "growth rescue": "inconclusive: 34%"},
      {"smiles": "Cc1cccc(NC(=O)CSc2cccc3cccnc23)c1", "growth rescue": "inactive: 0.913%"},
      {"smiles": "CC1(C)Cc2c(sc3ncn(N)c(=N)c23)CO1", "growth rescue": "inactive: -1.56%"},
      {"smiles": "Cc1ccc(S(=O)(=O)N(CCCO)CC(O)CON=C2c3ccccc3-c3ccccc32)cc1", "note": "(stereo not given)", "growth rescue": "active: 28.9%"},
      {"smiles": "CN(C)CC(O)COC(c1ccccc1)c1ccccc1", "note": "(stereo not given)", "growth rescue": "inconclusive: 38.2%"},
      {"smiles": "O=C(CCNC(=O)c1ccccc1Cl)Nc1nnc(C2CC2)s1", "growth rescue": "inconclusive: 46.1%"},
      {"smiles": "CCCCCCCOC(=O)C[N+](C)(C)CCOC1CC2CCC1(C)C2(C)C", "note": "(stereo not given)", "growth rescue": "inconclusive: 63.1%"},
      {"smiles": "O=C(Nc1ccccc1N1CCN(C(=O)c2ccc(Cl)cc2)CC1)c1cc2ccccc2o1", "growth rescue": "inconclusive: 99.2%"},
      {"smiles": "C[C@@H](OC(=O)c1[nH]cnc1C(=O)N1CCc2ccccc2C1)c1ccccc1", "growth rescue": "inconclusive: 30.2%"},
      {"smiles": "O=[N+]([O-])c1cccc(C=NNc2ccccc2)c1", "growth rescue": "inconclusive: 29%"},
      {"smiles": "COc1ccc(N=Cc2cc(Cc3ccccc3Cl)cc([N+](=O)[O-])c2O)cc1OC", "growth rescue": "inconclusive: 34%"},
      {"smiles": "O=C(NCc1ccccn1)c1ccc(=O)oc1", "growth rescue": "inactive: -1.8%"},
      {"smiles": "CC1CCCN(CC(=O)Nc2cccc([N+](=O)[O-])c2)C1", "note": "(stereo not given)", "growth rescue": "inactive: -0.387%"},
      {"smiles": "COc1ccc(CCNc2ccc(N3C(=O)CC(C)C3=O)cc2[N+](=O)[O-])cc1", "note": "(stereo not given)", "growth rescue": "inconclusive: 41.9%"},
      {"smiles": "COc1ccc(OC)c(CCNC(=O)C(C)n2nc(C)c3c(C)n(-c4ccc(C)cc4)nc3c2=O)c1", "note": "(stereo not given)", "growth rescue": "inactive: 0.954%"},
      {"smiles": "CCN(C(=O)CSc1nnc(-c2ccccc2OC)n1N)c1c(N)n(Cc2ccccc2)c(=O)[nH]c1=O", "growth rescue": "inactive: 0.707%"},
      {"smiles": "O=C(CNC(=O)OCc1ccccc1)Oc1cc2oc(=O)cc(-c3ccccc3)c2cc1Cl", "growth rescue": "inconclusive: 35%"},
      {"smiles": "CC1=CC2=NC(=O)CC(C)(C(=O)N(CC(=O)NC(C)(C)C)Cc3cccs3)N2C=C1", "note": "(stereo not given)", "growth rescue": "inconclusive: 27%"},
      {"smiles": "CC(C)CC(NS(=O)(=O)c1ccc2[nH]c(=O)c(=O)[nH]c2c1)C(=O)O", "note": "(stereo not given)", "growth rescue": "inconclusive: 41.2%"},
      {"smiles": "CC(=O)c1sc2ccccc2c1OC(=O)c1ccco1", "growth rescue": "inconclusive: 40.7%"},
      {"smiles": "CC(C)c1c(O)ccc2c1CC[C@H]1C(C)(C)CCC[C@]21C", "growth rescue": "active: 112%"},
      {"smiles": "O=C(CSc1ccc(-c2ccccn2)nn1)Nc1cccc(F)c1", "growth rescue": "inconclusive: 61.6%"},
      {"smiles": "CC1CCC/C(=N\\NC(=O)COc2ccccc2Cl)C1", "note": "(stereo not given)", "growth rescue": "inactive: -1.05%"},
      {"smiles": "CC(NC(=O)Cn1nc(-c2ccccc2)c2ccccc2c1=O)c1ccccc1", "note": "(stereo not given)", "growth rescue": "inconclusive: 28.7%"},
      {"smiles": "CC(=O)Oc1c(-c2ccco2)oc2ccccc2c1=O", "growth rescue": "inconclusive: 55.2%"},
      {"smiles": "COc1ccc2nc(NC(=O)CN3CCN(C)CC3)sc2c1", "growth rescue": "inconclusive: 33%"},
      {"smiles": "O=C(CSCc1ccc(Cl)cc1)Nc1ccc(-c2nnc(-c3ccccc3)o2)cc1", "growth rescue": "inactive: -0.289%"},
      {"smiles": "CN(C)c1nc(SCC(=O)Nc2ccccc2)nc(N2CCOCC2)n1", "growth rescue": "inconclusive: 40.3%"},
      {"smiles": "CCOC(=O)c1ccc(NS(=O)(=O)c2cn(C)cn2)cc1", "growth rescue": "inconclusive: 29.9%"},
      {"smiles": "O=c1c2[nH]c3ccccc3c2ncn1CCC1=CCCCC1", "growth rescue": "inconclusive: 76.7%"},
      {"smiles": "O=C1OC(c2ccccc2)=NC12CC2c1ccc(Cl)cc1", "note": "(stereo not given)", "growth rescue": "active: 255%"},
      {"smiles": "CC(C)C[C@H](NC(=O)c1[nH]cnc1C(=O)Nc1ccccc1)C(=O)OC(C)(C)C", "growth rescue": "inactive: 16.1%"},
      {"smiles": "O=C(Nc1cccc(-c2csc(Nc3ccc(Cl)cc3)n2)c1)c1cccc(C(F)(F)F)c1", "growth rescue": "inconclusive: 28.7%"},
      {"smiles": "C/C(CC(=O)N1CCCC1)=N\\NC(=O)c1cc2ccccc2cc1O", "growth rescue": "inactive: 1.86%"},
      {"smiles": "COc1ccc(CNC(=O)[C@H](C)NC(=O)C2CCN(S(=O)(=O)c3ccc(F)cc3)CC2)cc1", "growth rescue": "inactive: -0.675%"},
      {"smiles": "COc1ccc(C2CC(c3ccccc3OC(C)=O)=NN2C(=O)/C=C/c2ccccc2)cc1OC", "note": "(stereo not given)", "growth rescue": "inactive: 0.748%"},
      {"smiles": "O=C(c1cccs1)c1no[n+]([O-])c1C(=O)c1cccs1", "growth rescue": "inconclusive: 28.6%"},
      {"smiles": "COc1ccc(CCC(C)Nc2ccc(F)c(F)c2)cc1", "note": "(stereo not given)", "growth rescue": "inconclusive: 25.3%"},
      {"smiles": "CC(C)(C)OC(=O)NCCCCCNC(=O)c1nc[nH]c1C(=O)NCCCCCNC(=O)OC(C)(C)C", "growth rescue": "active: 44.9%"},
      {"smiles": "Clc1cc2c(nn1)Nc1ccccc1S2", "growth rescue": "inconclusive: 28.8%"},
      {"smiles": "CCOCCCNC(=S)N1CCCN(c2nc3cc(C)c(C)cc3cc2C#N)CC1", "growth rescue": "inactive: 1.36%"},
      {"smiles": "Cc1ccc(C2CC2C(=O)NNC(=S)Nc2ccc(Cl)cc2)cc1", "note": "(stereo not given)", "growth rescue": "inconclusive: 31.1%"},
      {"smiles": "CCn1c(Sc2nc(C)nc3scc(-c4cccs4)c23)n[nH]c1=O", "growth rescue": "inconclusive: 36.9%"}
    ]}
  ]
}
